## Assay results

The results are deposited in PubChem (AID1159506; NCATS, 2015).

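Luminescence from an EWS-FLI1 target-promoter (NR0B1) reporter, set against a CMV-promoter reporter, two days after silencing single genes in TC32 Ewing sarcoma cells. Each siRNA was applied at 20 nM. A z-score of the log NR0B1-over-CMV signal, less the median of siRNAs with the same seed; more negative means a stronger specific loss of the NR0B1 reporter.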

The strongest results of the screen are mostly left out here. Sequences are the guide (antisense) strand, without overhang.

{"sirna": "GGGAUUUCAAUAACUCUGA", "gene": "LOC101928697", "seed-corrected z-score": "-0.469"}
{"sirna": "UGACCAUCGUGUGCGUUGG", "gene": "TMEM201", "seed-corrected z-score": "-0.4019"}
{"sirna": "UCUGUCAUCACAGUAGGUG", "gene": "EPAS1", "seed-corrected z-score": "-0.003712"}
{"sirna": "ACAUAAACAACAAUGAUCC", "gene": "OR9G4", "seed-corrected z-score": "-0.6851"}
{"sirna": "AAAGGGAAUGUCCUGGUCC", "gene": "ATP6V0E2-AS1", "seed-corrected z-score": "-0.2318"}
{"sirna": "UAUCCAAACAGGCACUACC", "gene": "CYP4F2", "seed-corrected z-score": "0.696"}
{"sirna": "UGAAAUACUAGGGAGGUGG", "gene": "OR10K1", "seed-corrected z-score": "-1.026"}
{"sirna": "UGACAAGAAGUAAGGAUCC", "gene": "COQ2", "seed-corrected z-score": "0.1711"}
{"sirna": "UAUUCGAUGCCCAAAGUGU", "gene": "GNAO1", "seed-corrected z-score": "-0.3388"}
{"sirna": "UUGUUGUGAACCUCCACCA", "gene": "GTPBP6", "seed-corrected z-score": "1.699"}
{"sirna": "UUCAGGUUAAUGAUCUUCA", "gene": "SCN2B", "seed-corrected z-score": "0.4576"}
{"sirna": "UCGAUGUUCACAUCUGUCU", "gene": "MAB21L3", "seed-corrected z-score": "0.8977"}
{"sirna": "UCUUAGACCGGACAUGUUC", "gene": "UBD", "seed-corrected z-score": "0.3438"}
{"sirna": "AUUCUUACUAUACCAUCUG", "gene": "SEH1L", "seed-corrected z-score": "0.7292"}
{"sirna": "UAAUAGGUCACUACGUUGG", "gene": "STK39", "seed-corrected z-score": "-0.1031"}
{"sirna": "UGAUAGAACAGUAGACAGG", "gene": "PSMA6", "seed-corrected z-score": "0.5474"}
{"sirna": "UUCUCGUUUUGGGUAAGGG", "gene": "CDK8", "seed-corrected z-score": "0.7029"}
{"sirna": "UGUGGUAGUAUGUUGCGUG", "gene": "TOMM40", "seed-corrected z-score": "-0.2909"}
{"sirna": "UAUGGUCUUAGACUAGAUG", "gene": "PCP4L1", "seed-corrected z-score": "-1.705"}
{"sirna": "AUCCUCCUCAAAGCUACCC", "gene": "SNX33", "seed-corrected z-score": "-0.9604"}
{"sirna": "UAUUGAUGCAGGGACAACG", "gene": "CABS1", "seed-corrected z-score": "0.2599"}
{"sirna": "UACUAGGUCAUCCAAGUUG", "gene": "EXPH5", "seed-corrected z-score": "0.2075"}
{"sirna": "UUCUGUUAUGUCCUUAUCC", "gene": "C1orf54", "seed-corrected z-score": "-0.765"}
{"sirna": "UCAAGGUGUGGAGAAGUGG", "gene": "NR4A1", "seed-corrected z-score": "0.006242"}
{"sirna": "AUCUGUUAGUGUUAAGUUC", "gene": "HAO2", "seed-corrected z-score": "-0.07952"}
{"sirna": "AAGAUAGUCAGCCCAAUGG", "gene": "A3GALT2", "seed-corrected z-score": "0.09298"}

Once more, the final 2:

AUCUGUUAGUGUUAAGUUC against HAO2 read seed-corrected z-score -0.07952.
AAGAUAGUCAGCCCAAUGG against A3GALT2 read seed-corrected z-score 0.09298.